The other results are listed elsewhere or left out.
Columns and labels:
Experiment in all cases: log2 fold change, soluble protein after heating vs DMSO (PISA); higher = thermal stabilisation; K562 cells, 10 uM, 30 min; active = over 0.2 and 3.5 SD of the protein, either way, in both replicates (recomputed)
[1] = compound: NC(=O)Nc1cc(-c2cccc(F)c2)sc1C(=O)N[C@H]1CCCNC1
Procedure, shortened: (§1)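 K562 cells at 2×10^6 cells/mL were exposed to 10 μM compound for 30 min, then aliquots were heated for 3 min across 48°C-58°C, pooled, and extracted in PBS containing 0.5% NP-40 at 4°C. The supernatant after 21,000xg for 90 min was taken as soluble protein and measured by TMTpro 16plex LC-MS/MS with channel sums equalised. Thermal stability is reported relative to control samples, with values from duplicates. Fold changes are given on a log2 scale.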

Chains of the proteins cited; added tags and fusions are not shown. Lines headed by an entry give the natural chain unless they say otherwise; changes in a name come on top.
UniProt Q6ZW49, whole entry, looked up: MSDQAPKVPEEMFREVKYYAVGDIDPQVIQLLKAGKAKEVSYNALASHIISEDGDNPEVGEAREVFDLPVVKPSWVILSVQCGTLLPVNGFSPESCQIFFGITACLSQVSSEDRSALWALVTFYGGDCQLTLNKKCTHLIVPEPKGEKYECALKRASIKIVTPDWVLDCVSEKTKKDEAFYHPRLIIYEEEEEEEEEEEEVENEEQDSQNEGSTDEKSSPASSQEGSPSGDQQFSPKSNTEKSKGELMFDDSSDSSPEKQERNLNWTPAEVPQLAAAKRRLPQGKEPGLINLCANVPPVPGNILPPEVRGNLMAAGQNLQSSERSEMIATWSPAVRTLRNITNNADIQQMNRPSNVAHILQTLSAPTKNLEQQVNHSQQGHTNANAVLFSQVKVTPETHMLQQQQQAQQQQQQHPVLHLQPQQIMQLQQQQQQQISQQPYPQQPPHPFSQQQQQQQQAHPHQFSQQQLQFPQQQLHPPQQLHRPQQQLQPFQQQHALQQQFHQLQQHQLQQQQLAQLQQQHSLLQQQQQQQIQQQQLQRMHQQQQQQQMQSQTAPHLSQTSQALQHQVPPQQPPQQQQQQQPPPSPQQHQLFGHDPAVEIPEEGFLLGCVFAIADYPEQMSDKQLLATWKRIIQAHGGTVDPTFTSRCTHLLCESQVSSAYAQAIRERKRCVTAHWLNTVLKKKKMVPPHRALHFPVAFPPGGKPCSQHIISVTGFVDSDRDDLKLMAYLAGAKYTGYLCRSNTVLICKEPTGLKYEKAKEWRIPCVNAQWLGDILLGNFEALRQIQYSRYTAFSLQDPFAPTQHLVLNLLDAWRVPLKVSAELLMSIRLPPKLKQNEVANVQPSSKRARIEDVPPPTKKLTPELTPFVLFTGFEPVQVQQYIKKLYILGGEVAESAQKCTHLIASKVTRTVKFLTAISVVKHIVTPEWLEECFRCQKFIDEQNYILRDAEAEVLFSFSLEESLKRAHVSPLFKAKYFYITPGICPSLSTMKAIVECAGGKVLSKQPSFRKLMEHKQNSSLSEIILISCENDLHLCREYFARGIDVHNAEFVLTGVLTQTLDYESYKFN
UniProt O75459: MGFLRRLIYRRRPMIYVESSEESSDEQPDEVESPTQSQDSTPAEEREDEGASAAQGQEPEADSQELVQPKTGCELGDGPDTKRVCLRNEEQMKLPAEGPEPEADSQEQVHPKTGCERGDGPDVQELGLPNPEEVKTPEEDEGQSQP
UniProt Q9UHG3: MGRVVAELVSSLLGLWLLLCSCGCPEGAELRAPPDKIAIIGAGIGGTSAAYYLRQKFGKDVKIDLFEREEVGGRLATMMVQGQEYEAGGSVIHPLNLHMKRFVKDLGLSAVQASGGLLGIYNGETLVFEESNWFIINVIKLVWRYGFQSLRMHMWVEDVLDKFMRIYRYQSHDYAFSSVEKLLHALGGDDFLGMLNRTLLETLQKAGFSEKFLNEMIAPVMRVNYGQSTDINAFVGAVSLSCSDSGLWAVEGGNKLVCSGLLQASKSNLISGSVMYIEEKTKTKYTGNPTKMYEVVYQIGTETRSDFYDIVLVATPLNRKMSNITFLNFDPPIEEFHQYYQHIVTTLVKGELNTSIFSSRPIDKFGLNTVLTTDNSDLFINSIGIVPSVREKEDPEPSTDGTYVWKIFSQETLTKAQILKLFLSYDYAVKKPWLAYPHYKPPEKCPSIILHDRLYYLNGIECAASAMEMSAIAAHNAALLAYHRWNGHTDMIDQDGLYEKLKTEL
UniProt H7BZJ3: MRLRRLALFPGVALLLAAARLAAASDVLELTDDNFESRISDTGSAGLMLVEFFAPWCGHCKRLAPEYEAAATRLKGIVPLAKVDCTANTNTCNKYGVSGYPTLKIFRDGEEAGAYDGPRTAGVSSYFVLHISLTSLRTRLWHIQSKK
UniProt O00330, whole entry, looked up: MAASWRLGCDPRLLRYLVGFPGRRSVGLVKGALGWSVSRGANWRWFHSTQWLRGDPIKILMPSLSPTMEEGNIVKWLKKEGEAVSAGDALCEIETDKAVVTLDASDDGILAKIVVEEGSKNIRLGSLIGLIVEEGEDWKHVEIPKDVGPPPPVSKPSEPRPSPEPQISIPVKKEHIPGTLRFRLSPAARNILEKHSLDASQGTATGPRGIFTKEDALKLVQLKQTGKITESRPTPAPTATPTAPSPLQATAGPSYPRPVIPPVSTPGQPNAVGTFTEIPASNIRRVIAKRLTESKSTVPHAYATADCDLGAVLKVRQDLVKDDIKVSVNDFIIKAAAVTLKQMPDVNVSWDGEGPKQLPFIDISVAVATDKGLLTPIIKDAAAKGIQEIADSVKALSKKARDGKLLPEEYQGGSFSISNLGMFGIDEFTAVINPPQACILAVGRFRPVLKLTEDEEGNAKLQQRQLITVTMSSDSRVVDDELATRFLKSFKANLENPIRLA
UniProt A6NDB9: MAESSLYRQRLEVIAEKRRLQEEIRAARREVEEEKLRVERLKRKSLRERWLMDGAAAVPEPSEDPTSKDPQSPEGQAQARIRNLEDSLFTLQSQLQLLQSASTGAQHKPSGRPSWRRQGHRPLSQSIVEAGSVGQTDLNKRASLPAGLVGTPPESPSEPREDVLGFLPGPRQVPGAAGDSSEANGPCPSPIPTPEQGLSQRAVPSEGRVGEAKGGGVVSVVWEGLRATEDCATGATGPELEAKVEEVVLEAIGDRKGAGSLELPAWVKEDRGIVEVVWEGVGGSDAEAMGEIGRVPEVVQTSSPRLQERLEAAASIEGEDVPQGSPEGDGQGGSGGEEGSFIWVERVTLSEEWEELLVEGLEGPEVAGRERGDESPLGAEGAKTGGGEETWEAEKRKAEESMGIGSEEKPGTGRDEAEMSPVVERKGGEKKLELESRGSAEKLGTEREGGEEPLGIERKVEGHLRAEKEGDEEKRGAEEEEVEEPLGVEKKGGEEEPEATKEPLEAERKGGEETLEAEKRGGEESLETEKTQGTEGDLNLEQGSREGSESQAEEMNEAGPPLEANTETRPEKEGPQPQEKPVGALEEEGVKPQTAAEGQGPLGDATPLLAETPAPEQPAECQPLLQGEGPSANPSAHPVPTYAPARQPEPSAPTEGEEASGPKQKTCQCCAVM
UniProt Q9BVG4: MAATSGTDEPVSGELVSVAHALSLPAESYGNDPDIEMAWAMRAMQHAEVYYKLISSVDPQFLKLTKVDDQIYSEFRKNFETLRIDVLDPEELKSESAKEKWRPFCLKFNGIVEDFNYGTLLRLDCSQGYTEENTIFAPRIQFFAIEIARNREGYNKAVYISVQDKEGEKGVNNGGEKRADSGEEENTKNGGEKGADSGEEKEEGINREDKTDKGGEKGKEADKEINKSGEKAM

[2] = compound: NC(=O)c1cnc(N[C@@H]2CCCC[C@@H]2N)nc1Nc1cccc(-n2nccn2)c1
Procedure, shortened: as §1

[3] = compound: NC1(c2ccc(-c3nc4ccn5c(=O)[nH]nc5c4cc3-c3ccccc3)cc2)CCC1
Procedure, shortened: as §1

[4] = compound: NCC(=O)Nc1ccc(-n2nc(C(F)(F)F)cc2-c2ccc3c(ccc4ccccc43)c2)cc1
Procedure, shortened: as §1

entinostat = compound: Nc1ccccc1NC(=O)c1ccc(CNC(=O)OCc2cccnc2)cc1 [entinostat]
Procedure, shortened: as §1

vorinostat = compound: O=C(CCCCCCC(=O)Nc1ccccc1)NO [vorinostat]
Procedure, shortened: as §1

citarinostat = compound: O=C(CCCCCCNC(=O)c1cnc(N(c2ccccc2)c2ccccc2Cl)nc1)NO [citarinostat]
Procedure, shortened: as §1

silmitasertib = compound: O=C(O)c1ccc2c(c1)nc(Nc1cccc(Cl)c1)c1ccncc12 [silmitasertib]
Procedure, shortened: as §1

[5] = compound: O=C1NC(=O)C(c2cnc3ccccn23)=C1c1cn2c3c(cc(F)cc13)CN(C(=O)N1CCCCC1)CC2
Procedure, shortened: as §1

[6] = compound: c1cc(OCCN2CCCCC2)cc(-c2n[nH]c3ccc(-c4nnc[nH]4)cc23)c1
Procedure, shortened: as §1

entospletinib = compound: c1cn2cc(-c3ccc4cn[nH]c4c3)nc(Nc3ccc(N4CCOCC4)cc3)c2n1 [entospletinib]
Procedure, shortened: as §1

Measured: log2 fold change

PAXIP1 (UniProt Q6ZW49)
inactive: [1] -0.089 | [2] -0.517 | [3] 0.008 | [4] -0.088 | entinostat -0.092 | vorinostat -0.092 | citarinostat -0.209 | silmitasertib 0.111 | [5] -0.034 | [6] -0.068 | entospletinib -0.163

PAGE1 (UniProt O75459)
inactive: [1] -0.057 | [2] 0.075 | [3] 0.083 | [4] 0.08 | entinostat -0.018 | vorinostat -0.061 | citarinostat -0.129 | silmitasertib -0.01 | [5] -0.059 | [6] -0.024 | entospletinib 0.054

PCYOX1 (UniProt Q9UHG3)
inactive: [1] 0.084 | [2] 0 | [3] 0.018 | [4] -0.029 | entinostat 0.021 | vorinostat 0.012 | citarinostat 0.031 | silmitasertib 0 | [5] -0.022 | [6] -0.016 | entospletinib -0.092

PDIA3 (UniProt H7BZJ3)
inactive: [1] -0.01 | [2] -0.032 | [3] -0.016 | [4] 0.141 | entinostat -0.039 | vorinostat -0.167 | citarinostat 0.014 | silmitasertib 0.068 | [5] -0.03 | [6] -0.076 | entospletinib 0.004

PDHX (UniProt O00330)
inactive: [1] -0.013 | [2] 0.098 | [3] -0.034 | [4] 0.115 | entinostat -0.013 | vorinostat -0.053 | citarinostat -0.023 | silmitasertib 0.049 | [5] 0.048 | [6] -0.174 | entospletinib 0.019

PALM3 (UniProt A6NDB9)
inactive: [1] -0.055 | [2] 0.09 | [3] 0.027 | [4] 0.16 | entinostat -0.133 | vorinostat -0.088 | citarinostat 0.095 | silmitasertib -0.053 | [5] -0.09 | [6] -0.042 | entospletinib -0.023

PBDC1 (UniProt Q9BVG4)
inactive: [1] -0.002 | [2] -0.022 | [3] -0.095 | [4] -0.047 | entinostat 0.031 | vorinostat 0.044 | citarinostat 0.042 | silmitasertib -0.026 | [5] -0.022 | [6] -0.086 | entospletinib -0.006

— the supplement of paper PMC10849652
